Assay results from patent publication US20090030179A1, “ANTIMICROBIAL PEPTIDE AND USE THEREOF” (TOAGOSEI CO., LTD, priority 2005, published 2009).
Some entries share one result that the patent states for a list of compounds.

test system: Gram-positive bacteria (Staphylococcus aureus); assay type: cell-based; settings: summary of Table 2
Experimental: Regarding the antimicrobial peptides (samples 1 to 12) and the peptide of comparative sample 1 related to the present invention, their antimicrobial activities (minimum inhibitory concentration: MIC) against Gram-negative bacteria (Escherichia coli) and Gram-positive bacteria (Staphylococcus aureus) were determined, as described below, by liquid medium dilution method using a 96-well microplate. […] The prepared liquid broth media containing the peptide at each concentration described above were then loaded onto 96-well microplates in 100-μL aliquots. At the same time, the tested bacteria cultured for 18 hours at 37° C. on an agar plate (“Muller Hinton Agar” manufactured by DIFCO) were collected by scraping with a loop, and then suspended in sterilized physiological saline. 5 μL of bacterial suspension prepared to be equivalent to 2×10^7 cells/mL was inoculated (number of bacteria to be tested: approximately 1×10^6 cells/mL) into each well of the above-described microplate filled with the liquid broth media containing the peptide at each concentration. After inoculation, the microplate was then incubated in an incubator at 37° C., and the presence of bacteria was evaluated based on the turbidity after 24 hours. The minimum drug concentration (polypeptide concentration), at which no increase in bacterial turbidity was detected at the time of measurement, was defined as MIC (minimum inhibitory concentration) (unit: μM) in the present embodiment.

Row | Substance | antimicrobial activity (in words), S. aureus
1 | H-SLQHICRMSIRRVMS-NH2 [Sample 3, SLQHICRMSIRRVMS] | particularly high antimicrobial activities
2 | H-SLQYLCRFVIRQYTR-NH2 [Sample 2, SLQYLCRFVIRQYTR] | particularly high antimicrobial activities
3 | H-TLKKRCLQVVRKLVK-NH2 [Sample 5, TLKKRCLQVVRKLVK] | particularly high antimicrobial activities
4 | H-TLLSLCRVAVRRALG-NH2 [Sample 4, TLLSLCRVAVRRALG] | particularly high antimicrobial activities
